Reference: PubChem BioAssay AID1347076 (National Center for Advancing Translational Sciences (NCATS), 2019)
In all, about 400,000 compounds went through this assay and about 13,000 (3.2%) were called active. The inconclusive results got no clear call from the source; some entries with a clear call stand among them for comparison. Calls follow the shape of the dose curve; as a rule, active = well fitted cell-killing curve with a large enough effect; inconclusive = small, poorly fitted or top-dose-only effect, or effect the other way; inactive = flat fitted curve, though single readings scatter. Potencies of inconclusive entries are doubtful fits and often do not repeat.
% is scaled to controls: 0 for no effect and ±100 for the full control effect; potency is read from the fitted curve at half-maximal effect.

Assay: qHTS assay for MDR1-selective chemotherapeutics: Primary screen using the drug-selected MDR subline cells KB-V1; also: nearly all actives have a fitted effect of over 60% in size
Conditions: KB-V1 MDR cells viability, CellTiter-Glo, 72 h; activity change, negative = cytotoxicity: at 46.1 µM (top of the series)
Method in brief: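 Following 72 h at 37 degrees C with compound, KB-V1 cell viability was read by CellTiter-Glo luminescence, medium being phenol-red-free DMEM plus 10% FBS; concentration-response parameters came from normalized, curve-fitted qHTS data.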
With `COC1(OC)C(/C=C/c2ccc(Cl)cc2)C(C#N)(C#N)C1(OC)OC` (configuration not stated) the Potency was inconclusive: 29.1 µM [cytotoxic, single point].
In the case of `COCCNC(=O)Cn1cc(S(=O)(=O)Cc2ccccc2Cl)c2ccccc21`, the “activity change, negative = cytotoxicity” value is reported as inactive: -18.2%.
With `CCOc1ccc(NC(=O)CCNC(=O)C2CCN(S(=O)(=O)c3ccccc3)CC2)cc1` the Potency was inconclusive: 18.4 µM [rising, single point].
With `O=C1CC2C(CCC23OCCO3)c2ccc3ccccc3c21` (configuration not stated) the “activity change, negative = cytotoxicity” value was inactive: 2.09%.
With `O=C(COC(=O)c1cccnc1Cl)Nc1ccc2c(c1)OCO2` the Potency was inconclusive: 29.1 µM [rising, single point].
In the case of `COc1ccccc1NC(=O)c1cc(S(=O)(=O)N(C)C2CCCCC2)ccc1F`, the “activity change, negative = cytotoxicity” value is reported as inactive: -29.1%.
For `CC(C)=CCN1CCN(Cc2nc(-c3ccccc3)cs2)CC1CCO` (configuration not stated), the Potency was inconclusive: 6.51 µM [cytotoxic, partial curve].
For `Cc1cccc(-n2c(SCc3cc(=O)n4ccsc4n3)nc3ccccc32)c1`, the Potency was active: 13 µM.
With `S=C(NCc1ccc2[nH]c3c(c2c1)CCCC3)Nc1ccccc1` the “activity change, negative = cytotoxicity” value was inactive: -1.28%.
With `COc1cc2nc(CN3C(=O)c4ccccc4C3=O)oc(=O)c2cc1OC` the Potency was inconclusive: 29.1 µM [rising, single point].
With `O=C(NNC1=C(C(=O)C(F)(F)F)CCC1)c1ccccc1Cl` the Potency was inconclusive: 29.1 µM [cytotoxic, single point].
With `Cc1cc(C(=O)N/N=C/c2ccc([N+](=O)[O-])s2)n[nH]1` the “activity change, negative = cytotoxicity” value was inactive: -1.61%.
With `Cc1ccc(S(=O)(=O)N2CCN(C(=O)CN3CCc4ccccc4C3)CC2)cc1` the Potency was active: 4.11 µM.
With `Cn1c(=O)c2c(SCc3cccnc3)nc(C3CC3)nc2n(C)c1=O` the Potency was inconclusive: 14.6 µM [cytotoxic, partial curve, poor fit].
In the case of `CCCC(c1c(C)n(C)n(-c2ccccc2)c1=O)c1c(C)n(C)n(-c2ccccc2)c1=O`, the Potency is reported as inconclusive: 32.6 µM [cytotoxic, single point].
For `CCOC(=O)C1=CN(Cc2cccc(F)c2)S(=O)(=O)N(CC)C1c1ccc(F)c(Cl)c1` (configuration not stated), the Potency was inconclusive: 29.1 µM [cytotoxic, single point].
With `CSC1=NC=C(C#N)C2=NC(c3ccc(Cl)cc3)NN12` (configuration not stated) the “activity change, negative = cytotoxicity” value was inactive: -5.63%.
In the case of `COc1ccc(CN2CCNC(=O)C2CC(=O)NCC(C)(C)N2CCOCC2)cc1C` (configuration not stated), the “activity change, negative = cytotoxicity” value is reported as inactive: 17.1%.
With `COc1ccc(CN(C2CCCCC2C)S(=O)(=O)c2ccc(S(=O)(=O)N(C)C)cc2)cc1OC` (configuration not stated) the Potency was active: 6.51 µM.
For `O=C(O)CC(NS(=O)(=O)c1c(F)cc(F)cc1Br)c1ccccc1Cl` (configuration not stated), the Potency was inconclusive: 20.6 µM [rising, single point].
In the case of `O=C(Nc1nc([C@@H]2O[C@H](CO)[C@@H](O)[C@H](O)[C@H]2O)cs1)NC(c1ccccc1)c1ccccc1`, the “activity change, negative = cytotoxicity” value is reported as inactive: 4.31%.
In the case of `COc1cc2[nH]c(C(=O)NCCc3ccccc3)cc2c(OC)c1OC`, the Potency is reported as inconclusive: 1.16 µM [cytotoxic, full curve].
In the case of `Cc1cccc(C)c1NC(=O)C1c2ccccc2OCC(=O)N1Cc1ccco1` (configuration not stated), the “activity change, negative = cytotoxicity” value is reported as inactive: 10.1%.
For `O=C(Nc1ccccn1)c1ccc2c(c1)S(=O)(=O)c1ccccc1C2=O`, the “activity change, negative = cytotoxicity” value was inactive: 5.27%.
For `CCCN1CCc2c(sc3nc(SCC)n(-c4ccc(OC)cc4)c(=O)c23)C1`, the “activity change, negative = cytotoxicity” value was inactive: 13.1%.
For `Cc1ccc(S(=O)(=O)/C(C#N)=C/c2c(N3CCC(C(N)=O)CC3)nc3ccccn3c2=O)cc1`, the Potency was inconclusive: 18.4 µM [rising, single point].
In the case of `CC(OC(=O)Cc1c(F)cccc1Cl)C(=O)NCCC1=CCCCC1` (configuration not stated), the Potency is reported as inconclusive: 23.1 µM [cytotoxic, partial curve].
With `Nc1nonc1-n1nnc(C(=O)N/N=C/c2cccs2)c1CSc1ccccc1` the Potency was inconclusive: 16.4 µM [cytotoxic, partial curve, poor fit].
In the case of `Cn1nccc1NC(=O)Nc1ccc(OC(F)(F)F)cc1`, the Potency is reported as inconclusive: 0.0065 µM [rising, full curve, poor fit].
For `Cc1ccc(-c2[nH]ncc2/C=N/n2c(COc3ccccc3)nc3ccccc3c2=O)cc1`, the Potency was inconclusive: 3.26 µM [cytotoxic, partial curve, poor fit].
In the case of `Cc1c(NC(=O)CN2C(=O)NC(CCc3ccccc3)C2=O)c(=O)n(-c2ccccc2)n1C` (configuration not stated), the Potency is reported as inconclusive: 8.2 µM [rising, partial curve, poor fit].
For `CCOC(=O)c1c(NC(=O)c2cc(CC)on2)sc(C)c1C`, the Potency was inconclusive: 29.1 µM [rising, single point].
For `Cc1ccc(S(=O)(=O)N2CCCCC2CCNC(=O)C(=O)NC2CC2)cc1` (configuration not stated), the Potency was active: 8.2 µM.
For `O=c1cc(CSc2ncn[nH]2)[nH]c2c(Cl)cccc12`, the “activity change, negative = cytotoxicity” value was inactive: 17.9%.
With `O=C(C=Cc1ccccn1)c1ccccc1O` the Potency was inconclusive: 29.1 µM [cytotoxic, single point].
With `CC(C)Oc1ccccc1OCCCOc1cccc2cccnc12` the Potency was inconclusive: 16.4 µM [cytotoxic, single point].
With `CCCCNC(=O)CN(C1CCCCC1)S(C)(=O)=O` the Potency was inconclusive: 20.6 µM [cytotoxic, single point].
In the case of `c1ccc(CNCCC(Cc2ccccc2)c2ccco2)cc1` (configuration not stated), the Potency is reported as inconclusive: 18.4 µM [cytotoxic, single point].
In the case of `CCNC(=O)COc1ccc(S(=O)(=O)Nc2ccccc2)cc1`, the Potency is reported as inconclusive: 20.6 µM [cytotoxic, single point].
For `O=C(CC1N=C2c3ccccc3N=C(SCc3ccc(Cl)cc3)N2C1=O)NCCc1ccccc1` (configuration not stated), the “activity change, negative = cytotoxicity” value was inactive: -12.2%.
In the case of `Clc1ccc(Nc2nc(-c3cccnc3)cs2)cc1`, the “activity change, negative = cytotoxicity” value is reported as inactive: 7.18%.
For `Cc1onc(-c2ccccc2)c1C(=O)Nc1cccc(OC(C)C)c1`, the Potency was inconclusive: 20.6 µM [cytotoxic, single point].
In the case of `CCN(CC)C(=O)c1ccc(Oc2ccc([N+](=O)[O-])cc2Cl)cc1`, the Potency is reported as inconclusive: 11.6 µM [cytotoxic, partial curve].
For `COc1cccc(/C=C/c2ccc3cccc(O)c3n2)c1`, the Potency was inconclusive: 20.6 µM [cytotoxic, single point].
With `CCOc1ccc(C2c3c(-c4ccc(C)cc4)n[nH]c3C(=O)N2c2ccc(Cl)cc2)cc1` (configuration not stated) the Potency was inconclusive: 20.6 µM [cytotoxic, single point].
With `O=c1cc(-c2ccccc2F)oc2ccccc12` the Potency was inconclusive: 23.1 µM [cytotoxic, single point].
With `O=C(c1cccc(N2C(=O)C3C4C=CC(C4)C3C2=O)c1)N1CCCc2ccccc21` (configuration not stated) the Potency was inconclusive: 6.51 µM [cytotoxic, partial curve].
For `CCN(CC)C(=O)CSc1ncnc2c1cnn2Cc1ccccc1`, the Potency was inconclusive: 29.1 µM [cytotoxic, single point].
For `CN(C(=O)N1CCN(S(=O)(=O)c2ccccc2)CC1)c1ccccc1`, the “activity change, negative = cytotoxicity” value was inactive: -4.18%.
With `COc1ccccc1/C=C1\CCC(C2CCCC2)C1=O` (configuration not stated) the “activity change, negative = cytotoxicity” value was inactive: -2.02%.
With `Cc1cccc(NC(=O)NCCn2c(=O)oc3ccc(C)cc32)c1` the “activity change, negative = cytotoxicity” value was inactive: -1.88%.
For `CCN(C(=O)COC(=O)c1cc(-c2ccc(C)o2)nc2ccccc12)C1CCS(=O)(=O)C1` (configuration not stated), the Potency was inconclusive: 14.6 µM [cytotoxic, partial curve].
With `CC1(C)ON=C(c2cccc(F)c2)NC1=O` the “activity change, negative = cytotoxicity” value was inactive: -3.45%.
With `COc1cc(NC(=O)C(CC(C)C)NS(=O)(=O)c2ccc3c(c2)CCCC(=O)N3)cc(OC)c1` (configuration not stated) the Potency was inconclusive: 18.4 µM [rising, partial curve, poor fit].
In the case of `CC(C)(C)c1ccc(N2C(=N)SCC2=O)cc1`, the “activity change, negative = cytotoxicity” value is reported as inactive: -10.2%.
In the case of `CCC1=Nc2cc(C(=O)NCc3ccco3)ccc2Sc2ccc(C)cc21`, the Potency is reported as active: 0.164 µM.
With `Cc1ccc(CNC(=O)CCCn2c(=O)c3ccccc3n(CC(=O)C(C)(C)C)c2=O)cc1` the “activity change, negative = cytotoxicity” value was inactive: -7.67%.
In the case of `COc1ccc(CCC(=O)Nc2ccc(Cl)c(S(=O)(=O)N3CCCC3)c2)cc1`, the Potency is reported as inconclusive: 3.26 µM [cytotoxic, full curve, poor fit].
For `COc1ccccc1/C=C/C(=O)NCC(=O)N/N=C/c1cc(Br)ccc1OC`, the Potency was inconclusive: 14.6 µM [cytotoxic, single point].
For `CC(NC(=O)c1cccc(S(=O)(=O)N2CCN(Cc3ccccc3)CC2)c1)c1ccccc1Cl` (configuration not stated), the “activity change, negative = cytotoxicity” value was inactive: -4.32%.
For `CC(C(=O)N1CCN(C(=O)c2ccco2)CC1)n1sc2ccccc2c1=O` (configuration not stated), the Potency was inconclusive: 23.1 µM [cytotoxic, partial curve, poor fit].
With `CCn1cc(CNC(=O)c2c(-c3c(Cl)cccc3Cl)noc2C)c(C)n1` the “activity change, negative = cytotoxicity” value was inactive: -27%.
With `CCOc1ccc(N2CC(C(=O)N3CCN(C(=O)c4ccco4)CC3)CC2=O)cc1` (configuration not stated) the “activity change, negative = cytotoxicity” value was inactive: -14%.
In the case of `CCOC(=O)Cn1nnc2c(sc3nc4c(c(-c5ccc(Cl)cc5)c32)CCC4)c1=O`, the Potency is reported as inconclusive: 11.6 µM [cytotoxic, partial curve].
With `CCc1nc2ccccc2c(C(=O)OCC(=O)N(C)Cc2ccccc2)c1C` the Potency was inconclusive: 23.1 µM [cytotoxic, partial curve, poor fit].
For `Cc1ccc(C)c(CN2C(=O)c3ccccc3S(=O)c3ccc(C(=O)NCc4ccccc4Cl)cc32)c1` (configuration not stated), the “activity change, negative = cytotoxicity” value was inactive: 0%.
For `COc1ccc2c(c1)CCc1c(C(=O)N3CCCc4ccccc43)noc1-2`, the Potency was active: 7.31 µM.
In the case of `Cc1ccc(C(=O)NC(C)c2ccc(F)cc2)cc1` (configuration not stated), the Potency is reported as inconclusive: 18.4 µM [rising, single point].
With `NC(=O)c1c(NC(=O)c2cccnc2)sc2c1CCCC2` the Potency was inconclusive: 29.1 µM [cytotoxic, single point].
For `COc1cccc(CNC(=O)CN2C(=O)N(c3cc(C)ccc3C)S(=O)(=O)c3ccccc32)c1OC`, the “activity change, negative = cytotoxicity” value was inactive: 4.55%.
In the case of `C=CCOC(=O)C1=C(C)NC(SCC(=O)OCC)=C(C#N)C1c1ccc(O)c(OC)c1` (configuration not stated), the “activity change, negative = cytotoxicity” value is reported as inactive: -23.1%.
With `COc1cccc(NC(=O)Cn2cc(C(=O)C3CCCCC3)c3ccccc32)c1` the Potency was inconclusive: 18.4 µM [cytotoxic, single point].
